Test [1] addresses phosphorylated TDP-43 (pTDP-43) in sarkosyl insoluble fractions of FTD type A brain (human) (UniProt Q13148). The experiment in a line: immunodepletion and immunoprecipitation with antibody on Protein G beads from the sarkosyl insoluble fraction of FTD type A brain; Western blot probed for pTDP-43.
Test [2] has as its target C-terminal fragments of TDP-43 in the sarkosyl insoluble fraction of FTD type A postmortem brain (human) (UniProt Q13148). Briefly: immunodepletion and immunoprecipitation with antibody on Protein G beads from the sarkosyl insoluble fraction of FTD type A brain; Western blot probed for total TDP-43. On the technique in general: In western blotting, separated proteins are transferred to a membrane and probed.

Sequences of proteins named here, by UniProt entry; tags and fusion partners are left off. Residues count along the entry.
UniProt Q13148, residues 208-414: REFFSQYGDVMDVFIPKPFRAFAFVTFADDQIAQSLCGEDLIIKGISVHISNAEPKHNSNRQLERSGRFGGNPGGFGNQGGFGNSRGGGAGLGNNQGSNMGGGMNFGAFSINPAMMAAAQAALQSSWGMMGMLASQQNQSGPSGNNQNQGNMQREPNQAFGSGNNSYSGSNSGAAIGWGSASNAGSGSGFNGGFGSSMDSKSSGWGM

Test [3] has as its target phosphorylated TDP-43 (pTDP-43) in sarkosyl insoluble fractions of FTD type A brain (human) (UniProt Q13148). Briefly: immunodepletion/immunoprecipitation, Protein G beads, Western blot.
The target in test [4] is aggregated TDP-43 in human FTD brain tissue sections (human) (UniProt Q13148). Briefly: IHC, FTD brain sections.
The target in test [5] is C-terminal fragments of TDP-43 in the sarkosyl insoluble fraction of FTD type A postmortem brain (human) (UniProt Q13148). The experiment in a line: Western blot, denaturing; lane 2 sarkosyl insoluble fraction of FTD type A frontal cortex.

Changes are numbered by the printed parent chain. No constants are given. Whether binding was seen depends on the method and setting. Some results given as binding are weak or reduced against the parent protein; the word gives no strength.

B1: hACI-7069-633B12-Ab1_H19L18 (IgG1 isotype) (antibody, V domains shown)
VH: QVQLVQSGAEVKKPGASVKVSCKTSGFTFTEYSMHWVRQAPGQRLEWIGGINPGNAGTSYNQKFKGRVTITVDTSASTAYMELSSLRSEDTAVYYCARESWGQGTTVTVSS
VL: DVVMTQSPLSLPVTLGQPASISCKSSQSLLHSDAKTYLNWLQQRPGQSPRRLIYLVSKLDSRVPDRFSGSGSGTDFTLKISRVEAEDLGVYYCFQGTHFPHTFGQGTKLEIK
Consider B1, for which the binding entry in test [1], in test [2] and in test [3] was “binds” each time.

B2: ACI-7071-809D9-Ab2 (antibody, mouse IgG2b, V domains shown)
VH: QVQLQQSGAELVRPGVSVKISCKGSGYKFTDYSMHWVKQSHTKSLEWIGVISTYYGDTTYNQKFKGKATITVDKSSSTAYMELARLTSEDSAIYYCATYGNFPASFSYWGQGTLVTVSA
VL: DIVMTQAAPSIPVTPGESVSISCRSSKSLLHSNGNTYLYWFLQRPGQSPQLLIYRMSNLASGVPDRFSGSGSGTAFTLRISRVEAEDVGVYYCMQHLEYPFTFGSGTKLEIK
Turning to B2, in test [4], the binding result is reported as “binds”.

B3: ACI-7069-636E5-Ab1 (antibody, mouse IgG2b, V domains shown)
VH: EVHLVESGGDLVMPGGSLKLSCAASGFTFSNYGMSWVRQTPDKRLEWVATISSGGKYINYLDSLKGRFTISRDNAKNTLYLQMSSLKSEDTAMYYCAKDYGSGWAWFAYWGQGTLVTVSA
VL: QLVLTQSSSASFSLGASAKLTCTLSSQHSTYTIEWYQQQPLKPPKYVMELKKDGSHSTGDGIPDRFSGSSSGADRYLSISNIQPEDEAIYICGVGDTIKEQFVYVFGGGTKVTVL
With B3, the binding result in test [5] is “binds”.

B4: ACI-7069-641H1-Ab2 (antibody, mouse IgG2b, V domains shown)
VH: QVQLKESGPGLVAPSQSLSITCTVSGFSLTNYGVHWVRQPPGKGLEWLGLMWAGGSTNYNSALMSRLSISKDNSKSQVFLKMNSLQTDDTAMYYCVIYRTGFAYWGQGTLVTVSA
VL: DVLMTQTPLSLPVSLGDQASISCRSSQSIVHTIGNTYLEWYLQKPGQSPKLLIYKVSNRFSGVPDRFSGSGSGTDFTLKISRVEAEDLGVYYCFQGSHVPFTFGSGTKLEIK
Turning to B4, the binding result in test [4] was “binds”.

B5: ACI-7069-646B7-Ab1 (antibody, mouse IgG2b, V domains shown)
VH: B4 VH with Y32F, L50I, R99K
VL: B4 VL with T32A
With B5, the binding entry in test [4] is reported as “binds”.

B6: ACI-7071-809F12-Ab1 (antibody, mouse IgG2b, V domains shown)
VH: QVQLKESGPGLVAPSQSLSITCTVSGFSLNRNGVQWVRQPPGKGLEWLGVIWPGGSTNCNSALMSRLSISKDNSKSQVFLKMNSLHTDDTGIYYCARVGGNYVWDYNNYAWGQGTLVTVSA
VL: B4 VL with S28N, T32S, F101Y, S105G, K112R
As to B6, the binding entry in test [4] was “binds”.

The values are drawn from patent US20230322908A1.
